Results: paper PMC12034769
No constants are given. Whether binding was seen depends on the method and setting. Binding seen in cells or lysates may run through a third protein. Here binding means that the protein was enriched with, or labelled near, the bait; the list need not be complete. Each block holds one molecule with its values, some of them ahead of it.

Chains of the proteins cited; added tags and fusions are not shown. Lines headed by an entry give the natural chain unless they say otherwise; changes in a name come on top.
UniProt P19838: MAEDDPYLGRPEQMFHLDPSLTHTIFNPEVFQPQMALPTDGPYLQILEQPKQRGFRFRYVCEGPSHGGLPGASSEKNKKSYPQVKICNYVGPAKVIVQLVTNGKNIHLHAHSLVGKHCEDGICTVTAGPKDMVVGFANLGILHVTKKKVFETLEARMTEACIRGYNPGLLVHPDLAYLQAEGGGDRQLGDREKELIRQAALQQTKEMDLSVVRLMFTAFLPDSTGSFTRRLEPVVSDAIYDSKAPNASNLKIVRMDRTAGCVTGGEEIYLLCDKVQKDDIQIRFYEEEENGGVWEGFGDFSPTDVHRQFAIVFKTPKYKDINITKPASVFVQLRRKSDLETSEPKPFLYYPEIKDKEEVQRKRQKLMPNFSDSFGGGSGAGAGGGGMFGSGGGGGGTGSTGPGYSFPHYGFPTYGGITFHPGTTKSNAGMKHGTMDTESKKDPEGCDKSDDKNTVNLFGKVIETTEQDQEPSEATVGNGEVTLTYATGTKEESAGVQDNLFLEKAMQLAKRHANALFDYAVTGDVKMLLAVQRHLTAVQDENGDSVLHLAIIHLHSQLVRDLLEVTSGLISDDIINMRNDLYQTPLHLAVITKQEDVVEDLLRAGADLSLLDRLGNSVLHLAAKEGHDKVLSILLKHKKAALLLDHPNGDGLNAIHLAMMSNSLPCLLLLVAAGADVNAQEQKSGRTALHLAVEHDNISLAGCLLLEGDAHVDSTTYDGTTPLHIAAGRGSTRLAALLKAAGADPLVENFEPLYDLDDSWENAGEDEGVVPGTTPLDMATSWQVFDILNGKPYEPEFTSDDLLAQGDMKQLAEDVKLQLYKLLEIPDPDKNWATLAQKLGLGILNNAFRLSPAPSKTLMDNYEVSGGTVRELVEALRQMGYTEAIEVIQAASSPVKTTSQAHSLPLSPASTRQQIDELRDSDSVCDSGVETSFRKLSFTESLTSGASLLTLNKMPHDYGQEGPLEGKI

Columns and labels:
[1] = biological target: T1, ACAT1 as immunoprecipitated for mass spectrometry and in Supplementary Fig. 7f-h (construct not told) (human (in HCT116)) (UniProt P24752); test: affinity purification with mass spectrometry; nuclear ACAT1 immunoprecipitated from the nucleus of HCT116 cells; bound proteins analysed by mass spectrometry
T1 sequence: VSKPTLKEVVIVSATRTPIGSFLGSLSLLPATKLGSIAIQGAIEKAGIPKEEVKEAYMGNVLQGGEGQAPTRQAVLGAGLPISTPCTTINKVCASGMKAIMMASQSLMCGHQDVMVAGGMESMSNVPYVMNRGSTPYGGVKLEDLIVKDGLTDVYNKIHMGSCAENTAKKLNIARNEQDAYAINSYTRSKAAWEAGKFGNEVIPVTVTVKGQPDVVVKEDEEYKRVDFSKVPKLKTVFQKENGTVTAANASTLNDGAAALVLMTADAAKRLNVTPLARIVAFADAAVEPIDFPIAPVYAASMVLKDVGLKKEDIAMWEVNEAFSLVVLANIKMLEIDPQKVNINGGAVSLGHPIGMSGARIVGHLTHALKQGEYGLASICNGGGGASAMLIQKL

[2] = biological target: T1, ACAT1 as immunoprecipitated for mass spectrometry and in Supplementary Fig. 7f-h (construct not told) (human (in HCT116)); test: affinity purification with mass spectrometry; mass spectrometry analysis of the proteins bound to ACAT1; cells not given

binding [1]: binds
Molecule: nuclear factor-kappa B 1 (NFKB1) as identified by mass spectrometry (from UniProt P19838)

binding [2]: binds
B1: protein phosphatase 1A (PPM1A), endogenous human (enzyme, UniProt P35813 1-382)
chain: MGAFLDKPKMEKHNAQGQGNGLRYGLSSMQGWRVEMEDAHTAVIGLPSGLESWSFFAVYDGHAGSQVAKYCCEHLLDHITNNQDFKGSAGAPSVENVKNGIRTGFLEIDEHMRVMSEKKHGADRSGSTAVGVLISPQHTYFINCGDSRGLLCRNRKVHFFTQDHKPSNPLEKERIQNAGGSVMIQRVNGSLAVSRALGDFDYKCVHGKGPTEQLVSPEPEVHDIERSEEDDQFIILACDGIWDVMGNEELCDFVRSRLEVTDDLEKVCNEVVDTCLYKGSRDNMSVILICFPNAPKVSPEAVKKEAELDKYLECRVEEIIKKQGEGVPDLVHVMRTLASENIPSLPPGGELASKRNVIEAVYNRLNPYKNDDTDSTSTDDMW
